Reference: paper PMC10707163

How the values were obtained:
[1] = target: T1, Caveolin-1 (UniProt P33724); assay: co-IP; CAV1 immunoprecipitated with rabbit polyclonal anti-CAV1 on protein A/G-sepharose from extracts of B16F10 (CAV1/E-cad) cells, PBS-0.1% Tween, 12 h at 4 °C; E-cad detected by immunoblot; cells serum deprived 5 h and treated or not with PGE2 (20 uM, 2 h)
T1 sequence: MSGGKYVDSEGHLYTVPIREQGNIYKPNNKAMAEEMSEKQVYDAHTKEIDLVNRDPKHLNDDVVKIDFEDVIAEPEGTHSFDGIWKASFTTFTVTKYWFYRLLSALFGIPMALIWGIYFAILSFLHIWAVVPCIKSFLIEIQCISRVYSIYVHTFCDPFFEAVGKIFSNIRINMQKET

[2] = target: T1, Caveolin-1; assay: co-IP; CAV1 immunoprecipitated with rabbit polyclonal anti-CAV1 on protein A/G-sepharose from extracts of A375 (CAV1/E-cad) cells, PBS-0.1% Tween, 12 h at 4 °C; E-cad detected by immunoblot; cells treated or not with PGE2 (50 uM)

binding [1]: binds
binding [2]: binds
Substance: E-cadherin (murine)

These are yes or no findings as the source states them, for the method shown. In cells and extracts the contact can be indirect. Binding calls can cover weak binding; strength is not graded here.
